Results taken from PubChem BioAssay AID504775 (Broad Institute, 2011).
Among all 320,000 compounds or so, about 310 (0.097%) were called active. The inconclusive results got no clear call from the source; some entries with a clear call stand among them for comparison.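 How the source made its calls: active means mean replicate activation of at least 60% and every replicate at or above 60%; inconclusive means mean or all-replicate condition met, but not both; inactive means mean below 60% and not all replicates reaching 60%.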

Test: enhancers of HDL lipid transfer via mSR-BI – ldlA[mSR-BI] CHO cells, DiI fluorescence, primary screen (AID 504775);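 further: 0% = median plate neutral-control signal and 100% = twice that signal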
Conditions: DiI-HDL uptake fluorescence, 3 h, at 12.5 µM, active compounds read high, 100 = double the neutral-control signal
Method in brief: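 System: LDL receptor-deficient CHO ldlA cells overexpressing murine SR-BI | Timing: 3 h uptake period with compound, 37 °C | Medium: HEPES-buffered (25 mM, pH 7.4) F12 plus 0.5% BSA | Dosing: Single-point compound dose | Signal: Bottom-read fluorescence, 550/595 nm | Read-out: Retained DiI signal reflecting DiI-HDL uptake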

Structure (SMILES)	activation
Cc1nn2c(N3CCOCC3)cc(C(C)C)nc2c1-c1ccccc1	inconclusive: 191%
CN(C)c1cc[n+](CC(=O)c2cccs2)cc1	inconclusive: 263%
CCOc1ccccc1N(CC(=O)Nc1c(C)n(C)n(-c2ccccc2)c1=O)S(=O)(=O)c1ccccc1	active: 71.5%
O=C(CN1CCCCC1)N/N=C/c1cccc(C(F)(F)F)c1	inconclusive: 164%
CCCN1C(=O)/C(=C/c2c(N3CCNC(=O)C3CC(=O)OCC)nc3c(C)cccn3c2=O)SC1=S (stereo not given)	inconclusive: 78.4%
CCN1CCN(C(=O)c2ccc(CS(=O)Cc3ccc(C)cc3)o2)CC1 (stereo not given)	inconclusive: 63.3%
O=c1[nH]c(C2CCN(S(=O)(=O)c3ccc4c(c3)OCCO4)CC2)nc2c1nnn2Cc1ccc(F)cc1	active: 94%
Cn1c(Cc2cccs2)nnc1SCC(=O)N1CCCc2ccccc21	inconclusive: 116%
Cc1[nH]c(=O)[nH]c(=O)c1S(=O)(=O)NCC12CC3CC(CC(C3)C1)C2	inconclusive: 94.8%
CCc1ccccc1NC(=O)CN1CCC(NC(=O)COC)CC1	inconclusive: 62.6%
CCCC(=O)Nc1c(-c2ccccc2)c(=O)c(C)nn1-c1ccc(C)cc1	active: 315%
COc1cc(C2=NC(CO)(CO)CO2)cc(OC)c1OC	active: 448%
CC(C)c1ccc([N+](=O)[O-])cc1S(=O)(=O)N1CCN(C)CC1	inactive: 21.4%
O=C(Nc1nncs1)c1ccc2c(c1)OCO2	inactive: -2.34%
Cc1ccc(OC(=O)c2c(C)nn(-c3ccccc3)c2C)cc1	inconclusive: 88.4%
CC1N(C)c2cc(NC(=O)c3ccco3)ccc2C1(C)C (stereo not given)	active: 139%
CC(C)CNC(=O)C1Nc2ccccc2C2C=CCC12 (stereo not given)	inactive: 2.24%
Nc1nc(SCC(=O)c2ccc(Br)s2)n[nH]1	active: 641%
CC(C)N(C(=O)Nc1ccc2nccnc2c1)C(C)C	inconclusive: 213%
O=C(NN=C(Cc1ccccc1)Cc1ccccc1)c1ccccc1O	active: 299%

Arranged by length of the SMILES (smallest number first): part of the list above.
Structure (SMILES)	activation
O=C(Nc1nncs1)c1ccc2c(c1)OCO2	inactive: -2.34%
Nc1nc(SCC(=O)c2ccc(Br)s2)n[nH]1	active: 641%
CC(C)CNC(=O)C1Nc2ccccc2C2C=CCC12 (stereo not given)	inactive: 2.24%
CC(C)N(C(=O)Nc1ccc2nccnc2c1)C(C)C	inconclusive: 213%
CC1N(C)c2cc(NC(=O)c3ccco3)ccc2C1(C)C (stereo not given)	active: 139%
O=C(NN=C(Cc1ccccc1)Cc1ccccc1)c1ccccc1O	active: 299%
Cn1c(Cc2cccs2)nnc1SCC(=O)N1CCCc2ccccc21	inconclusive: 116%
CCN1CCN(C(=O)c2ccc(CS(=O)Cc3ccc(C)cc3)o2)CC1 (stereo not given)	inconclusive: 63.3%
CCCC(=O)Nc1c(-c2ccccc2)c(=O)c(C)nn1-c1ccc(C)cc1	active: 315%
Cc1[nH]c(=O)[nH]c(=O)c1S(=O)(=O)NCC12CC3CC(CC(C3)C1)C2	inconclusive: 94.8%
CCCN1C(=O)/C(=C/c2c(N3CCNC(=O)C3CC(=O)OCC)nc3c(C)cccn3c2=O)SC1=S (stereo not given)	inconclusive: 78.4%

Further records:

Structure (SMILES)	activation
Cc1ccc(NC2c3ncccc3C(=O)N2Cc2ccc(F)cc2)cc1 (stereo not given)	inactive: 25.4%
COCCn1ccc2c(OCC(=O)NCCc3ccccc3)cccc2c1=O	inactive: -7.45%
CN(C)C(=O)N1CCN(C(=O)N2CCOCC2)CC1	active: 75.4%
CC(CCc1ccccc1)NC(=O)CN1CCN(c2ccccc2)CC1 (stereo not given)	inactive: 8.26%
O=c1cc(N2CCN(c3ccc(F)cc3)CC2)[nH]c(=O)n1Cc1ccc(F)cc1	inactive: 0.362%
CC(=O)NNc1[nH]c2c(c(=O)c1[N+](=O)[O-])c(=O)n(C)c(=O)n2C	active: 67.7%
Cc1cc(C)cc(NC(=O)Cn2cc(C=O)c3ccccc32)c1	inconclusive: 92.9%
Cc1cccc(C)c1NC(=O)COc1ccc2c(C)c(Cc3ccccc3)c(=O)oc2c1C	inconclusive: 193%
Cc1c(C(=O)O)nnn1-c1nonc1N	inconclusive: 252%
CCN(CCO)Cc1csc2cccc(Br)c12	inactive: 5.45%
CN(C)c1ccc(C2CC(=O)OC3=C2C(=O)CC(C)(C)C3)cc1 (stereo not given)	active: 67.6%
O=C(CC1C(=O)NCCN1CC(c1ccccc1)c1ccccc1)NC1CC1 (stereo not given)	inactive: 10.9%
Cc1ccc(CC(=O)c2ccc(Cl)cc2)cc1	inconclusive: 381%
CCOc1ccc(NC(=O)CNC(=O)c2ccco2)cc1	inactive: 1.81%
Fc1ccccc1OCCCN1CCOCC1	inconclusive: 60%
Cc1c(Cl)cccc1NC(=O)[C@@]1(CC(=O)O)CC(/C=C/c2ccccc2)=NO1	inconclusive: 312%
CC(C)n1c(SCc2ccc(Cl)cc2)nc2c1c(=O)[nH]c(=O)n2C	inconclusive: 337%
CCS(=O)(=O)c1ccc(O)c(NC(=O)/C=C/c2ccccc2)c1	inconclusive: 164%
COc1cc(/C=N/NC(N)=S)ccc1OCc1ccc(C)cc1	inactive: -66.1%
Oc1ccc(C[C@H]2CNC(=S)N2CC2CCCN2C[C@H](Cc2ccccc2)N2C[C@H](Cc3ccc(O)cc3)N(CC3CCCCCC3)C2=S)cc1 (stereo not given in full)	active: 85.6%

Structure (SMILES)	activation
Cc1ccc(NC(=O)CSC2=C(C#N)C(c3ccco3)C3=C(CC(C)(C)CC3=O)N2)cc1 (stereo not given)	inconclusive: 93.2%
CC1CCN(C(=S)NC(=O)C2CCCCC2)CC1	inconclusive: 490%
Cc1ccc(-c2cc(C(F)F)nc(NCC3CCCO3)n2)cc1 (stereo not given)	active: 223%
O=C(NC(=O)c1ccccc1N1CCCCC1)Nc1ccc(Br)cc1	inconclusive: 79.2%
N#Cc1cc(C(=O)c2cc(Cl)ccc2O)cn(-c2ccccc2)c1=O	active: 75.6%
O=C(Cc1ccccc1)N/N=C/c1ccc2c(c1)OCO2	inactive: -7.03%
C=CCN1C(=O)C(Cc2cccc(Cl)c2)SC1=Nc1ccc(C(=O)O)cc1 (stereo not given)	active: 62.5%
CCOc1ccc(/C=N/n2nnnc2N)cc1OCC	inconclusive: 333%
O=C1N(c2ccccc2)C(c2ccccc2)N2CCCN12 (stereo not given)	inconclusive: 63.9%
O=C(N/C(C(=O)N1CCOCC1)=C(\Sc1ncccn1)c1ccccc1)c1ccccc1	inconclusive: 62.3%
Cn1c(CSc2ncn[nH]2)nc2ccccc21	active: 68.4%
CCOP(=O)(OCC)C(NC(=O)Nc1ccc(Cl)cc1)C(=O)N(CC)CC (stereo not given)	inconclusive: 84.4%
C[C@H]1CN([C@@H](C)CO)C(=O)Cc2cc(NC(=O)CCC(F)(F)F)ccc2O[C@H]1CN(C)Cc1ccc(-c2ccccc2)cc1	active: 154%
CCOC(=O)c1oc2ccccc2c1NC(=O)c1ccc2c(c1)OCO2	inactive: -36.7%
COc1ccc(CNC(=O)C2COc3ccccc3O2)c(OC)c1 (stereo not given)	inactive: 1.21%
CC12CN3CC(C)(CN(C1)C3c1ccc(Cl)cc1Cl)C2O (stereo not given)	active: 79%
NNC(=O)C1C(O)CCC2CN3CCc4c([nH]c5ccccc45)C3CC21 (stereo not given)	inactive: 20%
CC(=O)NC1(C(F)(F)F)C(=O)NC(C)=C1C#N (stereo not given)	inconclusive: 271%
Cc1ccccc1OCC(=O)N/N=C/c1cn(C)c2ccccc12	inconclusive: 87.7%
O=C(CCc1nc2ccccc2c(=O)[nH]1)Nc1ccc(F)c([N+](=O)[O-])c1	inactive: -7.5%
